Publication PMC4868951
These are yes or no findings as the source states them, for the method shown. In cells and extracts the contact can be indirect.

Sequences of proteins named here, by UniProt entry; tags and fusion partners are left off.
UniProt Q02748: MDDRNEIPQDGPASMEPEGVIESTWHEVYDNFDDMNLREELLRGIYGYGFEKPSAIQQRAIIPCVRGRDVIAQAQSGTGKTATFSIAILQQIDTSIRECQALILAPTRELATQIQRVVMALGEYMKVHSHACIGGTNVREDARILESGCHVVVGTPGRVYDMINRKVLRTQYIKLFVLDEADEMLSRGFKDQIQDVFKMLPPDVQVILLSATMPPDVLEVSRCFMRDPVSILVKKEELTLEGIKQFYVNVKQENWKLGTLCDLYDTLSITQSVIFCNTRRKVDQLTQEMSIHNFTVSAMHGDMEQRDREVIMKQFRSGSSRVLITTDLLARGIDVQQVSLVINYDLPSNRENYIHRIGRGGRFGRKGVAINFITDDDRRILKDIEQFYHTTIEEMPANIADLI
UniProt Q95V55: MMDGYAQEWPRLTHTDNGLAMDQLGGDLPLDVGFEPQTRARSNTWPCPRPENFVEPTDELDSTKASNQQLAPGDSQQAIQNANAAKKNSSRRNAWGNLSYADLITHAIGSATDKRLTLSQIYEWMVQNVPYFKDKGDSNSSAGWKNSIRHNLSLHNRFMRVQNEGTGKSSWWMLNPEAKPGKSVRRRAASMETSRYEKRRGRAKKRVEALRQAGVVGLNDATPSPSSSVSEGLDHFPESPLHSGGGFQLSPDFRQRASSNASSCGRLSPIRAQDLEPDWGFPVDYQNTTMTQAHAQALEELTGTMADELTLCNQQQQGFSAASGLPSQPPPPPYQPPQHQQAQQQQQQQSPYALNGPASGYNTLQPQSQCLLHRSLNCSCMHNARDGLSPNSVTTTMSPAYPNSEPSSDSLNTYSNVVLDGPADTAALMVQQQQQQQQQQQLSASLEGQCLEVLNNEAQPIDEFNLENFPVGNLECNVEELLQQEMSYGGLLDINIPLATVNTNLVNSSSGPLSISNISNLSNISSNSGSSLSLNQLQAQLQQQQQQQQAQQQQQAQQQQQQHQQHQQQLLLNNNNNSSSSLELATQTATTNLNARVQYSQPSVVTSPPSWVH

Biological target: FLAG-eIF4A (Drosophila) (UniProt Q02748)
Assay: co-IP; FLAG-eIF4A immunoprecipitated from Kc167 lysates, with or without amino acids, DSP cross-linking, 0.3% CHAPS lysis buffer, FLAG M2 affinity gel 5-6 h at 4°C

- binding: no binding
Substance: Foxo (from UniProt Q95V55 1-613)
